In patent publication US12364703B2, “Homogeneous ophthalmic composition” (priority 2015, dated 2025):

Assay: LCMS and standard curve analysis of the concentration of each active ingredient in solution
Assay type: physicochemical
Settings: three samples of solutions containing the three active ingredients; LCMS, standard curve
Procedure: The solutions were analyzed by LCMS and standard curve analysis to confirm the identity and quantity of each active ingredient and are summarized below. Separate stock solutions of moxifloxacin HCI, dexamethasone, and sodium bromfenac were used as standards. Three different samples of solutions containing the three active ingredients, i.e., moxifloxacin HCI, dexamethasone, and sodium bromfenac were analyzed for the concentration of moxifloxacin in solution, the concentration of dexamethasone in solution, and the concentration of sodium bromfenac in solution.

Concentration in Solution: 1102 µg/mL
SMILES: C[C@@H]1C[C@H]2[C@@H]3CCC4=CC(=O)C=C[C@]4(C)[C@@]3(F)[C@@H](O)C[C@]2(C)[C@@]1(O)C(=O)COP(=O)(O)O [dexamethasone sodium phosphate]
